# Experiment: Scintillation light output (LO) from ^137Cs gamma-ray response, relative to EJ-309 standard
SMILES,"LO relative to EJ-309 (loaded EJ-309, 0.1 wt. % ^6Li) [%]","decrease of relative LO (single-dye solutions of bis-MSB, BBQ or E404, 0.1 wt. % ^6Li) [%]","LO relative to EJ-309 (single dye solutions (bis-MSB, BBQ, E404) in 90:10 DIPN:IBA)"
"CCCCC(CC)COC(=O)CC(C(=O)OCC(CC)CCCC)S(=O)(=O)[O-].[Li+] (stereo not drawn) [^6LiDOSS, lithium 1,4-bis(2-ethylhexoxy)-1,4-dioxobutane-2-sulfonate]",90,6 to 10,–
CC(C)CC(=O)[O-].[6Li+] [^6LiIVA],–,–,more than 80%
